Drawing on publication PMC11040345, this text covers binding for one substance.

Amino acid sequences for entries named in this document (tags omitted).
UniProt P19338: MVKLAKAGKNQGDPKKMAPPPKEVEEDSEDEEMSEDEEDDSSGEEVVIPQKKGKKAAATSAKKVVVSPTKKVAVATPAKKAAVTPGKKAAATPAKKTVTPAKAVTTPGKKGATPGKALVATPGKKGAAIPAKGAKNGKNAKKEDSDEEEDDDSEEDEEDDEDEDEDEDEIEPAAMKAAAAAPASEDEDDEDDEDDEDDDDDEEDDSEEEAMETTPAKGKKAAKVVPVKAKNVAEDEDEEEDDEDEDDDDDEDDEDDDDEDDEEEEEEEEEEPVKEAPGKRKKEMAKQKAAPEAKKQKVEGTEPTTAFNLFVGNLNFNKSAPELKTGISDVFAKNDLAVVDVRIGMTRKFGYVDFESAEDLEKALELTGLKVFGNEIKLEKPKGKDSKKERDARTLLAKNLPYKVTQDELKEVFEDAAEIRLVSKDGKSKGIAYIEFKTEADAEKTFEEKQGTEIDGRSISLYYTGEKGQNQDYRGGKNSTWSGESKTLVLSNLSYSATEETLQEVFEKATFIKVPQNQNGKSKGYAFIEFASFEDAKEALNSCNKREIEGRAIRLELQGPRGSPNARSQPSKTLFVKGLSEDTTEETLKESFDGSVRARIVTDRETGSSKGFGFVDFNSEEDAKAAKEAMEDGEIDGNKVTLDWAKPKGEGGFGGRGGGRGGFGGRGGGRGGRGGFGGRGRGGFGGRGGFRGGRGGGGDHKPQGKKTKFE
UniProt P19474: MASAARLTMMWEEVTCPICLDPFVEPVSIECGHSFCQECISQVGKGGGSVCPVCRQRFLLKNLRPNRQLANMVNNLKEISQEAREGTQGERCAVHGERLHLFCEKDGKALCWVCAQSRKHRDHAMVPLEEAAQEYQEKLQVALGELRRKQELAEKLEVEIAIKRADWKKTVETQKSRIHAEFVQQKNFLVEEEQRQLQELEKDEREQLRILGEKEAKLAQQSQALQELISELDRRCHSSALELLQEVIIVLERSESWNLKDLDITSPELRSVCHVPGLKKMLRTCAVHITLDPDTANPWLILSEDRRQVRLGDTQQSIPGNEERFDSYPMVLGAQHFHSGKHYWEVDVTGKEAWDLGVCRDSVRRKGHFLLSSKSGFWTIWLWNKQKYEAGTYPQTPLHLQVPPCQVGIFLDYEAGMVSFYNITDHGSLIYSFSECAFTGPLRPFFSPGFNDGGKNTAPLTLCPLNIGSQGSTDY

Results are given in words; binding and its absence hold for the method and conditions named. In cells and extracts the contact can be indirect. These calls come from enrichment with a bait or labelling near it, and not all partners need be listed.

The assay has as its target nucleolin (NCL) (human (endogenous in HCCLM3)) (UniProt P19338). As to the kind of experiment: affinity purification with mass spectrometry; co-IP with the NCL antibody, silver staining of the obtained protein samples, then MS analysis; cells not stated in the text shown.

Regarding “tripartite motif-containing 21 (TRIM21) (from UniProt P19474 1-475)”, the binding entry is on record as “binds”.
